Reference: article doi:10.1101/2021.07.08.451585
No constants are given. Whether binding was seen depends on the method and setting. Binding seen in cells or lysates may run through a third protein. Some entries that bind do so weakly or less than the wild type. Sequences can lack the tags named with a protein.

Biological target: T1, BioID2-tagged wildtype human CLUH (BioID2-3xHA-CLUH) (human) (UniProt O75153)
T1 sequence: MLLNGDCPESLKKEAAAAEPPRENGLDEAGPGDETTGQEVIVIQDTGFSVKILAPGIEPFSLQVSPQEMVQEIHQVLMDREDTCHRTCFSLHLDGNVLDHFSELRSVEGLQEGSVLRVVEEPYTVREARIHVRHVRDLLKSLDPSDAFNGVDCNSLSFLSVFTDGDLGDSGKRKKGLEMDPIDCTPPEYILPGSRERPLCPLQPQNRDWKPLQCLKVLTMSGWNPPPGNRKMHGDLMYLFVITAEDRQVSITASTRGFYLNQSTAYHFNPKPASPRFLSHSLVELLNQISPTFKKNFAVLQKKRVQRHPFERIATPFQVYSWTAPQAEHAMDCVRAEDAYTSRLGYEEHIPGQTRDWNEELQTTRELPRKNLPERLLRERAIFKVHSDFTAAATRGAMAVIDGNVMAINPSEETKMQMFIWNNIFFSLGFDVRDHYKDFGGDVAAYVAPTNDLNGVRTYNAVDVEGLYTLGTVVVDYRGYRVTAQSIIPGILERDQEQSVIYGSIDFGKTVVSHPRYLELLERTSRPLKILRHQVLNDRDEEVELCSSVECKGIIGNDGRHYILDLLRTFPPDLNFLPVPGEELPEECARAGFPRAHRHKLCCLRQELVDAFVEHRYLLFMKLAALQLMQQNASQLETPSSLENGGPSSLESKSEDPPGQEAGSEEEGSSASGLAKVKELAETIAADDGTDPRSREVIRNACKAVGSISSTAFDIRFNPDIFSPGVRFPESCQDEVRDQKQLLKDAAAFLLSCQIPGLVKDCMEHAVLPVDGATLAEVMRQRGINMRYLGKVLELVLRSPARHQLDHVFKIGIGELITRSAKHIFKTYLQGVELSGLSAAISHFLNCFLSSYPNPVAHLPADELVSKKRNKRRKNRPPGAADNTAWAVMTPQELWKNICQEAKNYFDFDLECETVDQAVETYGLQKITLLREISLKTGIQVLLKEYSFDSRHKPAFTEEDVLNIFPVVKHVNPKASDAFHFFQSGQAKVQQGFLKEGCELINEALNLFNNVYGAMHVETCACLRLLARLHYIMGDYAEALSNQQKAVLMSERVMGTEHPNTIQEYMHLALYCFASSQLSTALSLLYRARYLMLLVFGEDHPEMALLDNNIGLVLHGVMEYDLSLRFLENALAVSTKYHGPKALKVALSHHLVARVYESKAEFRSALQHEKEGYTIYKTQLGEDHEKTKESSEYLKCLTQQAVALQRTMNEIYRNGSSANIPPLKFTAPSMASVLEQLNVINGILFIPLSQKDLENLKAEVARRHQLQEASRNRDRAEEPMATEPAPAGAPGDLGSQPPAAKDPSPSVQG
Test: co-IP

binding: binds
B1: SPAG5, endogenous in HCT116 cells (protein, UniProt Q96R06 1-1193)
chain: MWRVKKLSLSLSPSPQTGKPSMRTPLRELTLQPGALTNSGKRSPACSSLTPSLCKLGLQEGSNNSSPVDFVNNKRTDLSSEHFSHSSKWLETCQHESDEQPLDPIPQISSTPKTSEEAVDPLGNYMVKTIVLVPSPLGQQQDMIFEARLDTMAETNSISLNGPLRTDDLVREEVAPCMGDRFSEVAAVSEKPIFQESPSHLLEESPPNPCSEQLHCSKESLSSRTEAVREDLVPSESNAFLPSSVLWLSPSTALAADFRVNHVDPEEEIVEHGAMEEREMRFPTHPKESETEDQALVSSVEDILSTCLTPNLVEMESQEAPGPAVEDVGRILGSDTESWMSPLAWLEKGVNTSVMLENLRQSLSLPSMLRDAAIGTTPFSTCSVGTWFTPSAPQEKSTNTSQTGLVGTKHSTSETEQLLCGRPPDLTALSRHDLEDNLLSSLVILEVLSRQLRDWKSQLAVPHPETQDSSTQTDTSHSGITNKLQHLKESHEMGQALQQARNVMQSWVLISKELISLLHLSLLHLEEDKTTVSQESRRAETLVCCCFDLLKKLRAKLQSLKAEREEARHREEMALRGKDAAEIVLEAFCAHASQRISQLEQDLASMREFRGLLKDAQTQLVGLHAKQEELVQQTVSLTSTLQQDWRSMQLDYTTWTALLSRSRQLTEKLTVKSQQALQERDVAIEEKQEVSRVLEQVSAQLEECKGQTEQLELENSRLATDLRAQLQILANMDSQLKELQSQHTHCAQDLAMKDELLCQLTQSNEEQAAQWQKEEMALKHMQAELQQQQAVLAKEVRDLKETLEFADQENQVAHLELGQVECQLKTTLEVLRERSLQCENLKDTVENLTAKLASTIADNQEQDLEKTRQYSQKLGLLTEQLQSLTLFLQTKLKEKTEQETLLLSTACPPTQEHPLPNDRTFLGSILTAVADEEPESTPVPLLGSDKSAFTRVASMVSLQPAETPGMEESLAEMSIMTTELQSLCSLLQESKEEAIRTLQRKICELQARLQAQEEQHQEVQKAKEADIEKLNQALCLRYKNEKELQEVIQQQNEKILEQIDKSGELISLREEVTHLTRSLRRAETETKVLQEALAGQLDSNCQPMATNWIQEKVWLSQEVDKLRVMFLEMKNEKEKLMIKFQSHRNILEENLRRSDKELEKLDDIVQHIYKTLLSIPEVVRGCKELQGLLEFLS
